Results: patent US7854918B2 (Nihon Medi-Physics Co., Ltd., priority 2004, dated 2010)

Assay: general procedure: Boc solid-phase peptide synthesis; MBHA resin
Settings: whole synthesis, 220 nm, area percentage

Substance: formyl-Nle-Leu-Phe-Nle-Tyr-Lys(NH2)-ε(-Ser-D-Arg-Asp-Cys-Asp-Asp) (LLFLYKSRDCDD; N-formyl, Nle, D-residue, branched Lys linkage; chemically synthesized metal chelating peptide)
- final HPLC purity: 93.2%
